{"source": "the supplement of paper PMC4962491", "test_system": "FaDu", "experiment": "mitochondrial oxygen consumption rate normalised to cell number, Z score over the library; higher = higher oxygen consumption (negative = OCR reduction)", "conditions": "treatment time 24 h, assay medium: 5 mM galactose, 5 mM pyruvate, 4 mM glutamine", "protocol": "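Primary screen: FaDu cells were incubated 24 h with Pharmakon 1600 / TDI oncology set compounds at 2 or 10 uM. Mitochondrial-specific OCR (basal minus 2 uM antimycin A) was measured on a Seahorse XF96 in assay medium with 5 mM galactose, 5 mM pyruvate and 4 mM glutamine, then corrected for Hoechst cell number and expressed as a Z score […]. Compounds that cut cell number by >66% were excluded. Two repeats.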", "note": "Counter-ions that a name gives are not always drawn. ± gives the standard deviation of the averaged measurements. Only a part is listed here, and it is no random draw. This data set is noisy: repeats of one test often differ as much as different tests do.", "data": [{"compound": "CCCCC(CC)CN1CN(CC(CC)CCCC)CC(C)(N)C1", "note": "(stereo unspecified)", "values": [{"measurement": "mitochondrial oxygen consumption rate normalised", "setting": "2 µM", "result": "0.457 ± 1"}]}, {"compound": "CO[C@@]1(NC(=O)Cc2cccs2)C(=O)N2C(C(=O)O)=C(COC(N)=O)CS[C@@H]21", "values": [{"measurement": "mitochondrial oxygen consumption rate normalised", "setting": "2 µM", "result": "0.262 ± 0.49"}]}, {"compound": "CC(=O)c1ccc2c(c1)N(CCCN1CCC(CCO)CC1)c1ccccc1S2", "values": [{"measurement": "mitochondrial oxygen consumption rate normalised", "setting": "2 µM", "result": "0.864 ± 0.22"}]}, {"compound": "CNCC[C@H](Oc1cccc2ccccc12)c1cccs1", "values": [{"measurement": "mitochondrial oxygen consumption rate normalised", "setting": "2 µM", "result": "0.289 ± 0.45"}]}, {"compound": "O=C(CCCN1CCC(O)(c2ccc(Br)cc2)CC1)c1ccc(F)cc1", "values": [{"measurement": "mitochondrial oxygen consumption rate normalised", "setting": "2 µM", "result": "-0.707 ± 1.1"}]}, {"compound": "COc1cc(Cc2cnc(N)nc2N)cc(OC)c1OC", "values": [{"measurement": "mitochondrial oxygen consumption rate normalised", "setting": "2 µM", "result": "-0.0778 ± 0.14"}]}, {"compound": "CCN(CC)CCOC(=O)C(c1ccccc1)C1CCCCC1", "note": "(stereo unspecified)", "values": [{"measurement": "mitochondrial oxygen consumption rate normalised", "setting": "2 µM", "result": "-1.31 ± 0.11"}]}, {"compound": "COCC1=C(C(=O)OC(C)OC(=O)OC(C)C)N2C(=O)[C@@H](NC(=O)/C(=N\\OC)c3csc(N)n3)[C@H]2SC1", "note": "(stereo partly specified)", "values": [{"measurement": "mitochondrial oxygen consumption rate normalised", "setting": "2 µM", "result": "-0.537 ± 0.33"}]}, {"compound": "O=NN(CCCl)C(=O)NC1CCCCC1", "note": "[Lomustine;  CCNU]", "values": [{"measurement": "mitochondrial oxygen consumption rate normalised", "setting": "2 µM", "result": "0.41 ± 0.33"}]}, {"compound": "O=NN(CCCl)C(=O)NC1CCCCC1", "values": [{"measurement": "mitochondrial oxygen consumption rate normalised", "setting": "2 µM", "result": "0.962 ± 0.12"}]}, {"compound": "COc1ccccc1O", "values": [{"measurement": "mitochondrial oxygen consumption rate normalised", "setting": "2 µM", "result": "0.278 ± 1.1"}]}, {"compound": "Cc1cccc(CN2CCN(C(c3ccccc3)c3ccc(Cl)cc3)CC2)c1", "note": "(stereo unspecified)", "values": [{"measurement": "mitochondrial oxygen consumption rate normalised", "setting": "2 µM", "result": "-0.819 ± 0.26"}]}, {"compound": "CCOc1ccc(S(=O)(=O)O)c2cccnc12", "values": [{"measurement": "mitochondrial oxygen consumption rate normalised", "setting": "2 µM", "result": "-0.543 ± 0.32"}]}, {"compound": "O=C(O)CCC(=O)Nc1ccc(S(=O)(=O)Nc2nccs2)cc1", "values": [{"measurement": "mitochondrial oxygen consumption rate normalised", "setting": "2 µM", "result": "1.11 ± 0.052"}]}, {"compound": "COc1cnc(NS(=O)(=O)c2ccc(N)cc2)nc1", "values": [{"measurement": "mitochondrial oxygen consumption rate normalised", "setting": "2 µM", "result": "0.123 ± 0.099"}]}, {"compound": "CC(=O)OCC1=C(C(=O)O)N2C(=O)[C@@H](NC(=O)CSc3ccncc3)[C@H]2SC1", "values": [{"measurement": "mitochondrial oxygen consumption rate normalised", "setting": "2 µM", "result": "0.892 ± 1"}]}, {"compound": "O=C1OC2(c3ccc(O)cc3Oc3cc(O)ccc32)c2ccccc21", "values": [{"measurement": "mitochondrial oxygen consumption rate normalised", "setting": "2 µM", "result": "-0.0426 ± 0.24"}]}, {"compound": "CN(C)[C@@H]1C(O)=C(C(N)=O)C(=O)[C@@]2(O)C(O)=C3C(=O)c4c(O)ccc(Cl)c4[C@@](C)(O)[C@H]3C[C@@H]12", "values": [{"measurement": "mitochondrial oxygen consumption rate normalised", "setting": "2 µM", "result": "0.246 ± 0.017"}]}, {"compound": "C[C@]12CC[C@@H]3c4ccc(O)cc4CC[C@H]3[C@@H]1CCC2=O", "values": [{"measurement": "mitochondrial oxygen consumption rate normalised", "setting": "2 µM", "result": "0.365 ± 0.3"}]}, {"compound": "H-RKDVY-OH", "values": [{"measurement": "mitochondrial oxygen consumption rate normalised", "setting": "2 µM", "result": "-0.0539 ± 1.4"}]}, {"compound": "NC(=O)NC(=O)Cc1ccccc1", "values": [{"measurement": "mitochondrial oxygen consumption rate normalised", "setting": "2 µM", "result": "0.256 ± 0.33"}]}, {"compound": "COc1ccc(C(=O)c2ccc(C)cc2)c(O)c1", "values": [{"measurement": "mitochondrial oxygen consumption rate normalised", "setting": "2 µM", "result": "0.0688 ± 1.7"}]}, {"compound": "CC1(C)[C@H]2CC[C@]1(CS(=O)(=O)O)C(=O)C2=Cc1ccc(C=C2C(=O)[C@@]3(CS(=O)(=O)O)CC[C@@H]2C3(C)C)cc1", "values": [{"measurement": "mitochondrial oxygen consumption rate normalised", "setting": "2 µM", "result": "-0.188 ± 0.35"}]}, {"compound": "CN1[C@@H](CC(=O)c2ccccc2)CCC[C@H]1C[C@H](O)c1ccccc1", "values": [{"measurement": "mitochondrial oxygen consumption rate normalised", "setting": "2 µM", "result": "-0.343 ± 0.27"}]}, {"compound": "c1ccc2[nH]c(-c3cscn3)nc2c1", "values": [{"measurement": "mitochondrial oxygen consumption rate normalised", "setting": "2 µM", "result": "0.179 ± 0.41"}]}, {"compound": "COc1ccc(-c2cc(=O)c3c(O)cc(O[C@@H]4O[C@H](CO[C@@H]5O[C@@H](C)[C@H](O)[C@@H](O)[C@H]5O)[C@@H](O)[C@H](O)[C@H]4O)cc3o2)cc1O", "values": [{"measurement": "mitochondrial oxygen consumption rate normalised", "setting": "2 µM", "result": "0.666 ± 1.7"}]}, {"compound": "CC(C)(C)NC[C@H](O)c1ccc(O)c(CO)c1", "values": [{"measurement": "mitochondrial oxygen consumption rate normalised", "setting": "2 µM", "result": "-0.23 ± 0.86"}, {"measurement": "mitochondrial oxygen consumption rate normalised", "setting": "10 µM", "result": "0.0168 ± 0.31"}]}, {"compound": "CC(C)Nc1ncccn1", "values": [{"measurement": "mitochondrial oxygen consumption rate normalised", "setting": "2 µM", "result": "0.473 ± 0.042"}]}, {"compound": "CCn1cc(C(=O)O)c(=O)c2cnc(N3CCCC3)nc21", "values": [{"measurement": "mitochondrial oxygen consumption rate normalised", "setting": "2 µM", "result": "-1.08 ± 0.061"}]}, {"compound": "O=S(=O)(O)CCS", "values": [{"measurement": "mitochondrial oxygen consumption rate normalised", "setting": "2 µM", "result": "0.243 ± 0.3"}]}, {"compound": "CCCCCCCCCCCCC[N+](C)(C)Cc1ccccc1", "values": [{"measurement": "mitochondrial oxygen consumption rate normalised", "setting": "2 µM", "result": "-5.74 ± 0.24"}]}, {"compound": "CCCS(=O)(=O)Nc1ccc(F)c(C(=O)c2c[nH]c3ncc(-c4ccc(Cl)cc4)cc23)c1F", "note": "[Vemurafenib]", "values": [{"measurement": "mitochondrial oxygen consumption rate normalised", "setting": "2 µM", "result": "0.352 ± 0.067"}]}, {"compound": "CC(=O)[C@H]1CC[C@H]2[C@@H]3C[C@H](C)C4=CC(=O)CC[C@]4(C)[C@H]3[C@@H](O)C[C@]12C", "values": [{"measurement": "mitochondrial oxygen consumption rate normalised", "setting": "2 µM", "result": "0.256 ± 0.52"}]}, {"compound": "CCOC(=O)OC(C)OC1=C(C(=O)Nc2ccccn2)N(C)S(=O)(=O)c2ccccc21", "note": "(stereo unspecified)", "values": [{"measurement": "mitochondrial oxygen consumption rate normalised", "setting": "2 µM", "result": "0.0627 ± 0.2"}]}, {"compound": "O=C(O)c1cc(-c2ccc(F)cc2F)ccc1O", "values": [{"measurement": "mitochondrial oxygen consumption rate normalised", "setting": "2 µM", "result": "-0.927 ± 0.6"}]}, {"compound": "CCCCNC(=O)NS(=O)(=O)c1ccc(C)cc1", "values": [{"measurement": "mitochondrial oxygen consumption rate normalised", "setting": "2 µM", "result": "0.00357 ± 0.17"}]}, {"compound": "CCN1CC(CCN2CCOCC2)C(c2ccccc2)(c2ccccc2)C1=O", "note": "(stereo unspecified)", "values": [{"measurement": "mitochondrial oxygen consumption rate normalised", "setting": "2 µM", "result": "0.301 ± 0.46"}]}, {"compound": "CC(=O)Nc1ccc(CC(=O)O)cc1", "values": [{"measurement": "mitochondrial oxygen consumption rate normalised", "setting": "2 µM", "result": "0.914 ± 0.6"}]}, {"compound": "C[C@@H](CN1CC(=O)NC(=O)C1)N1CC(=O)NC(=O)C1", "note": "[Dexrazoxane HCl]", "values": [{"measurement": "mitochondrial oxygen consumption rate normalised", "setting": "2 µM", "result": "1.32 ± 0.36"}]}, {"compound": "CNCCC(Oc1ccc(C(F)(F)F)cc1)c1ccccc1", "note": "(stereo unspecified)", "values": [{"measurement": "mitochondrial oxygen consumption rate normalised", "setting": "2 µM", "result": "0.814 ± 1"}]}, {"compound": "Cc1nc2n(c(=O)c1CCN1CCC(c3noc4cc(F)ccc34)CC1)CCCC2", "values": [{"measurement": "mitochondrial oxygen consumption rate normalised", "setting": "2 µM", "result": "-0.684 ± 0.56"}]}, {"compound": "CC(=O)OCC(=O)[C@@]12N=C(C)O[C@@H]1C[C@H]1[C@@H]3CCC4=CC(=O)C=C[C@]4(C)[C@H]3[C@@H](O)C[C@@]12C", "values": [{"measurement": "mitochondrial oxygen consumption rate normalised", "setting": "2 µM", "result": "-0.0872 ± 0.072"}]}, {"compound": "CCOCCOc1ccccc1C(N)=O", "values": [{"measurement": "mitochondrial oxygen consumption rate normalised", "setting": "2 µM", "result": "0.421 ± 0.9"}, {"measurement": "mitochondrial oxygen consumption rate normalised", "setting": "10 µM", "result": "1.14 ± 0.52"}]}, {"compound": "CCC1=C(C)CN(C(=O)NCCc2ccc(S(=O)(=O)NC(=O)N[C@H]3CC[C@H](C)CC3)cc2)C1=O", "values": [{"measurement": "mitochondrial oxygen consumption rate normalised", "setting": "2 µM", "result": "-0.461 ± 0.23"}, {"measurement": "mitochondrial oxygen consumption rate normalised", "setting": "10 µM", "result": "0.0168 ± 0.78"}]}, {"compound": "CCCCOc1cc(C(=O)NCCN(CC)CC)c2ccccc2n1", "values": [{"measurement": "mitochondrial oxygen consumption rate normalised", "setting": "2 µM", "result": "-0.109 ± 0.61"}]}, {"compound": "CC[C@H]1OC(=O)[C@H](C)C(=O)[C@H](C)[C@@H](O[C@@H]2O[C@H](C)C[C@H](N(C)C)[C@H]2O)[C@](C)(OC)C[C@@H](C)C(=O)[C@H](C)[C@H]2N(CCCCn3cnc(-c4cccnc4)c3)C(=O)O[C@]12C", "values": [{"measurement": "mitochondrial oxygen consumption rate normalised", "setting": "2 µM", "result": "-0.211 ± 1.4"}]}, {"compound": "CCS(=O)(=O)CCn1c([N+](=O)[O-])cnc1C", "values": [{"measurement": "mitochondrial oxygen consumption rate normalised", "setting": "2 µM", "result": "0.524 ± 0.26"}]}, {"compound": "O=C1CCc2cc(OCCCCc3nnnn3C3CCCCC3)ccc2N1", "values": [{"measurement": "mitochondrial oxygen consumption rate normalised", "setting": "2 µM", "result": "-0.27 ± 0.57"}]}]}
